This is an account of results in publication PMC11643516, “Design, Synthesis, Structural Insights, Tyrosinase Inhibition, and Sun Protection Factor of New Thiosemicarbazone Derivatives” (Molecules, 2024).

Marks after values point to notes of the source that are not given here.

Experiment in the first data set: not given
Also noted: method as in PMID 29564550. The following applies: reference sunscreen compounds; cited from earlier work.
Take `O=C(O)/C=C/c1ccc(O)c(O)c1` [CA, caffeic acid]: the “SPF (sun protection factor)” value is recorded as 6.6 ± 0.4 ^b.

On to `O=C(O)/C=C/c1ccccc1` [CI, cinnamic acid], for which the “SPF (sun protection factor)” value is recorded as 2.0 ± 0.2 ^d.

Turning to `COc1cc(/C=C/C(=O)O)ccc1O` [FA, ferulic acid], the “SPF (sun protection factor)” value was 7.5 ± 0.2 ^b.

A further data set is described as follows: Sun protection factor by UV absorbance method (Mansur equation). In kind it is physicochemical. The following applies: compounds 50 µM, absorbance 290–320 nm.
On to `NC(=S)N/N=C/c1ccc(O)cc1` [TC1, (E)-2-(4-hydroxybenzylidene)hydrazine-1-carbothioamide], for which the “SPF (sun protection factor)” value is reported as 11.0 ± 0.4 ^a,b.

As for `NC(=S)N/N=C/c1ccc(OS(=O)(=O)c2ccccc2)cc1` [TCBS1, (E)-4-((2-carbamothioylhydrazineylidene)methyl)phenyl benzenesulfonate], the “SPF (sun protection factor)” value was 11 ± 2 ^a,b.

With `NC(=S)N/N=C/c1ccc(OS(=O)(=O)c2ccc([N+](=O)[O-])cc2)cc1` [TCBS2, (E)-4-((2-carbamothioylhydrazineylidene)methyl)phenyl 4-nitrolbenzenesulfonate], the “SPF (sun protection factor)” value is 13 ± 2 ^a.

Turning to `COc1ccc(S(=O)(=O)Oc2ccc(/C=N/NC(N)=S)cc2)cc1` [TCBS3, (E)-4-((2-carbamothioylhydrazineylidene)methyl)phenyl 4-methoxylbenzenesulfonate], the “SPF (sun protection factor)” value was 10 ± 2 ^a,b.

As to `Cc1ccc(S(=O)(=O)Oc2ccc(/C=N/NC(N)=S)cc2)cc1` [TCBS4, (E)-4-((2-carbamothioylhydrazineylidene)methyl)phenyl 4-methylbenzenesulfonate], the “SPF (sun protection factor)” value was 14 ± 2 ^a.

Turning to `NC(=S)N/N=C/c1ccc(OS(=O)(=O)c2ccc(Cl)cc2)cc1` [TCBS5, (E)-4-((2-carbamothioylhydrazineylidene)methyl)phenyl 4-chlorobenzenesulfonate], the “SPF (sun protection factor)” value is on record as 11 ± 2 ^a,b.

Turning to `CS(=O)(=O)Oc1ccc(/C=N/NC(N)=S)cc1` [TCMS1, (E)-4-((2-carbamothioylhydrazineylidene)methyl)phenyl methanesulfonate], the “SPF (sun protection factor)” value was 11 ± 2 ^a,b.
